These are yes or no findings as the source states them, for the method shown.
Target: cynomolgus monkey Factor B (cynomolgus monkey)
Test: ELISA; cynomolgus Factor B coated at 5 µg/mL, mAb in 3-fold dilutions from 10 µg/mL (top concentration from paragraph 341; the sheet gives none)

B1: anti-factor Bb monoclonal antibody M17 (antibody, V domains shown)
VH: EVQLVESGGVLVKPGGSLKLSCAASGFTFSNFAMSWVRQTPAKRLEWVATISNGGGYTYYPDSVQGRFTISRDNANNTLYLQMSSLRSEDTALYYCARIYYGSSYEDWFAYWGQGTLVTVSA
VL: DIVMTPSHKFMSTSVGDRVSITCKASQDVGSAVAWYQQKPGHSPKLLIFWASTRHTGVPDRFTGSGSGTDFTLTISNVQSEDLADYFCQQYSSYPYTFGGGTRLEIK
binding: no binding (tested: 10 µg/mL)
